Results are given in words; binding and its absence hold for the method and conditions named. Binding seen in cells or lysates may run through a third protein. Some results given as binding are weak or reduced against the parent protein; the word gives no strength.
B1: Annexin A1 (protein, UniProt P04083 1-346)
chain: MAMVSEFLKQAWFIENEEQEYVQTVKSSKGGPGSAVSPYPTFNPSSDVAALHKAIMVKGVDEATIIDILTKRNNAQRQQIKAAYLQETGKPLDETLKKALTGHLEEVVLALLKTPAQFDADELRAAMKGLGTDEDTLIEILASRTNKEIRDINRVYREELKRDLAKDITSDTSGDFRNALLSLAKGDRSEDFGVNEDLADSDARALYEAGERRKGTDVNVFNTILTTRSYPQLRRVFQKYTKYSKHDMNKVLDLELKGDIEKCLTAIVKCATSKPAFFAEKLHQAMKGVGTRHKALIRIMVSRSEIDMNDIKAFYQKMYGISLCQAILDETKGDYEKILVALCGGN

Amino acid sequences for entries named in this document (tags omitted).
UniProt P07355: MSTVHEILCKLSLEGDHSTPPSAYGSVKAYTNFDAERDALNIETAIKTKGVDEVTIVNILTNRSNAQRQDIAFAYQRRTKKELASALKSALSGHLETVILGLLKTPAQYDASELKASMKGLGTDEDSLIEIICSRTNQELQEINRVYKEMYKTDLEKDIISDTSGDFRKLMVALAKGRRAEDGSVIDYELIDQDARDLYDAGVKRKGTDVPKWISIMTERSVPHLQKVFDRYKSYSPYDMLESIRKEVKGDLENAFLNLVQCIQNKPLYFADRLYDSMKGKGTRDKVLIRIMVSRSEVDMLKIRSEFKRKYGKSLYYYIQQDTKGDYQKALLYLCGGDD

Target: T1, CDC25A (human (endogenous in HeLa)) (UniProt P30304)
T1 sequence: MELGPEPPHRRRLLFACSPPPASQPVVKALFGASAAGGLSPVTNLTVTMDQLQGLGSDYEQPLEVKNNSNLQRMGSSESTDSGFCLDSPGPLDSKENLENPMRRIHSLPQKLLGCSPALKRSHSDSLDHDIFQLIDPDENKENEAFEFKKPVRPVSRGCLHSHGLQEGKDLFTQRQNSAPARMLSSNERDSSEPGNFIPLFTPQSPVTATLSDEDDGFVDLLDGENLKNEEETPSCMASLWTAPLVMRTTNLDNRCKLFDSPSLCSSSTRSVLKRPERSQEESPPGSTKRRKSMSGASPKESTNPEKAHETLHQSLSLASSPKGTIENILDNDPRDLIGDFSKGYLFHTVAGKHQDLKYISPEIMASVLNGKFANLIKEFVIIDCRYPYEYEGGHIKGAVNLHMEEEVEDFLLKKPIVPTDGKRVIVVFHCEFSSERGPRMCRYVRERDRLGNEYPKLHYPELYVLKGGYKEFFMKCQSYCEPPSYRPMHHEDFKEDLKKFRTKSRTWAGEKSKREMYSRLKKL
Assay: proximity ligation; PLA in HeLa cells with different densities; red dots, fluorescent intensity normalized by nuclear number

Molecule | binding
Annexin A2 (from UniProt P07355 1-339) | binds
B1 | binds

From publication PMC11555385
